Test results from paper PMC2740868.
Results are given in words; binding and its absence hold for the method and conditions named. In cells and extracts the contact can be indirect. Some binding calls cover weakened binding; strength is not graded here. For part of these data: Tags and fused reporters may be left off the sequences shown.

Columns and labels:
Flag-Smad3, P84022 = assay: co-IP; HEK293T cells co-transfected with Flag-Smad3, HA-Smad4 and caTβRII, with or without 200 µM H2O2 for 2 hours; immunoprecipitation and Western blotting as indicated, membrane re-probed with anti-Flag; conditions: remark: other sources report otherwise
[1] = target: T1, endogenous Smad3 (human (endogenous in MCF-7, HaCaT, HCC1937 and HCCBRCA1)), P84022; assay: co-IP; endogenous, HaCaT cells, TGF-β1 (2 ng/ml) and H2O2 (100 µM) for 1 hour as indicated; IP anti-Smad3 polyclonal, blot anti-BRCA1 or anti-Smad4; HKMG buffer; conditions: remark: other sources report otherwise
[2] = target: T1, endogenous Smad3 (human (endogenous in …)); assay: co-IP; endogenous, HCC1937 cells (BRCA1-mutated), 2 ng/ml TGF-β1 and 100, 200 and 300 µM H2O2 for 1 hour as indicated; IP anti-Smad3 polyclonal, blot anti-Smad4; conditions: remark: other sources report otherwise
[3] = target: T1, endogenous Smad3 (human (endogenous in …)); assay: co-IP; HCCBRCA1 cells (wild type BRCA1-reconstituted HCC1937), TGF-β1 (2 ng/ml) and H2O2 (100-300 µM) for 1 hour as indicated; IP anti-Smad3 polyclonal, blot anti-BRCA1 or anti-Smad4; HKMG buffer; conditions: remark: other sources report otherwise
[4] = target: T2, endogenous Smad4 (human (endogenous in HaCaT, HCC1937, HCCBRCA1 and MCF-7)), Q13485; assay: co-IP; endogenous, MCF-7 cells transfected with siGL2 or siBRCA1, starved 3 hours, 1 ng/ml TGF-β1 for 45 min; IP anti-Smad4, blot anti-Smad3; conditions: remark: other sources report otherwise
T2 chain: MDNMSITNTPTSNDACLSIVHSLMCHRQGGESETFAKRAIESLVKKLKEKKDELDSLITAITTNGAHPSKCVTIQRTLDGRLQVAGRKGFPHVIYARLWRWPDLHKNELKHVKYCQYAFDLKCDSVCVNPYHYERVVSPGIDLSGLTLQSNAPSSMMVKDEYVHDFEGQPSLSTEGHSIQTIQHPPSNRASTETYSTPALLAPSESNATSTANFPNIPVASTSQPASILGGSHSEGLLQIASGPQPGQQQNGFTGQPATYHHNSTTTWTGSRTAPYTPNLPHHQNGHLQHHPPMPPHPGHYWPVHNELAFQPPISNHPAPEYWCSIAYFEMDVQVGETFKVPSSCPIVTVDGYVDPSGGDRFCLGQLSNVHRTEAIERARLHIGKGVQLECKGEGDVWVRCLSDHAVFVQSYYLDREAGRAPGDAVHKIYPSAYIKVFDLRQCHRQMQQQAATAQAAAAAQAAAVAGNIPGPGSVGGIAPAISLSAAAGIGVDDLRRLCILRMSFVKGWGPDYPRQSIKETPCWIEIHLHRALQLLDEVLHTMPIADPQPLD

Flag-Smad3 = Flag-Smad3 (UniProt P84022); assay: co-IP; HEK293T cells co-transfected with HA-BRCA1 constructs and Flag-Smad3; total cell lysates, immunoprecipitation and Western blotting with anti-Flag and anti-HA monoclonal antibodies

B1: HA-Smad4, Q13485 1-552 (protein)
chain: T2 chain
Flag-Smad3, P84022
  binding: binds

B2: endogenous Smad4, Q13485 1-552 (protein)
chain: T2 chain
[1]
  binding: binds
[2]
  binding: binds
[3]
  binding: binds

B3: endogenous Smad3, P84022 1-425 (protein)
chain: MSSILPFTPPIVKRLLGWKKGEQNGQEEKWCEKAVKSLVKKLKKTGQLDELEKAITTQNVNTKCITIPRSLDGRLQVSHRKGLPHVIYCRLWRWPDLHSHHELRAMELCEFAFNMKKDEVCVNPYHYQRVETPVLPPVLVPRHTEIPAEFPPLDDYSHSIPENTNFPAGIEPQSNIPETPPPGYLSEDGETSDHQMNHSMDAGSPNLSPNPMSPAHNNLDLQPVTYCEPAFWCSISYYELNQRVGETFHASQPSMTVDGFTDPSNSERFCLGLLSNVNRNAAVELTRRHIGRGVRLYYIGGEVFAECLSDSAIFVQSPNCNQRYGWHPATVCKIPPGCNLKIFNNQEFAALLAQSVNQGFEAVYQLTRMCTIRMSFVKGWGAEYRRQTVTSTPCWIELHLNGPLQWLDKVLTQMGSPSIRCSSVS
[4]
  binding: binds

B4: HA-BRCA1 (298–436aa) (domain or fragment, UniProt P38398 298-436)
chain: NVEKAEFCNKSKQPGLARSQHNRWAGSKETCNDRRTPSTEKKVDLNADPLCERKEWNKQKLPCSENPRDTEDVPWITLNSSIQKVNEWFSRSDELLGSDDSHDGESESNAKVADVLDVLNEVDEYSGSSEKIDLLASDP
Flag-Smad3
  binding: binds
